This passage reports binding results from paper PMC3981699.

The chains behind the UniProt entries cited, without tags or fusion partners.
UniProt Q9UMS4: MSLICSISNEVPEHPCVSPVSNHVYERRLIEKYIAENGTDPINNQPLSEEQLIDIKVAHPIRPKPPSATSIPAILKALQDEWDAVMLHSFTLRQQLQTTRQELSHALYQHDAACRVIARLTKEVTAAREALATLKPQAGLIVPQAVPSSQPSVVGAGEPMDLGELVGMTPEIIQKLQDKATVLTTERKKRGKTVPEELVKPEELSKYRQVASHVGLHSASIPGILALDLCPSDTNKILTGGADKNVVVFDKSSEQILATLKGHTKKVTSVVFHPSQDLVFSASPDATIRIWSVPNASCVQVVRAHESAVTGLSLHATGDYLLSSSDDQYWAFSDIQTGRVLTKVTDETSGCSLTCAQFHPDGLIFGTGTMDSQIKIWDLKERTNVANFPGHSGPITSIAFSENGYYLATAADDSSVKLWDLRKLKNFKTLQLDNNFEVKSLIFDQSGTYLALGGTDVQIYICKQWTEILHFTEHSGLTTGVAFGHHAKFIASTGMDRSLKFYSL

Results are given in words; binding and its absence hold for the method and conditions named. Binding seen in cells or lysates may run through a third protein. Some results given as binding are weak or reduced against the parent protein; the word gives no strength. Tags and fused reporters may be left off the sequences shown.

This assay concerns the target Myc-Prp19 (Pre-mRNA processing Factor 19) (human) (UniProt Q9UMS4). Briefly: co-IP; HEK-293T cells transiently co-transfected with Flag-SKAP and Myc-Prp19, lysed in NETN buffer after 48 hours; anti-Myc beads or anti-Flag beads; immunoblot. On the technique in general: Immunoblotting shows a protein as a band on a membrane.

B1: Flag-SKAP (small kinetochore associated protein) (protein, UniProt Q9Y448 1-316)
chain: MAAPEAPPLDRVFRTTWLSTECDSHPLPPSYRKFLFETQAADLAGGTTVAAGNLLNESEKDCGQDRRAPGVQPCRLVTMTSVVKTVYSLQPPSALSGGQPADTQTRATSKSLLPVRSKEVDVSKQLHSGGPENDVTKITKLRRENGQMKATDTATRRNVRKGYKPLSKQKSEEELKDKNQLLEAVNKQLHQKLTETQGELKDLTQKVELLEKFRDNCLAILESKGLDPALGSETLASRQESTTDHMDSMLLLETLQEELKLFNETAKKQMEELQALKVKLEMKEERVRFLEQQTLCNNQVNDLTTALKEMEQLLEM
Regarding B1, the binding entry was “binds”.
